Measurements published in the supplement of paper PMC12823440, “Inhibitors supercharge kinase turnover through native proteolytic circuits” (Nature, 2025).
Some of the results follow. The calls rarely recur for the same compound in another form.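 In K562 cells expressing nanoluciferase-fused kinases, luminescence was recorded at 4 h intervals between 2 and 18 h, normalized as percent of control with DMSO at 100% and a positive control at 0%. A significant (2 sigma) signal drop marks a time point as decreased. The authors' rule for a hit is not shown and takes in more than the number of time points.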

By UniProt entry, the sequences of proteins in these tests, tags left out. Where a name states a change or a piece, a line headed by the entry shows the natural chain unless it says otherwise.
UniProt Q05397, whole entry, looked up: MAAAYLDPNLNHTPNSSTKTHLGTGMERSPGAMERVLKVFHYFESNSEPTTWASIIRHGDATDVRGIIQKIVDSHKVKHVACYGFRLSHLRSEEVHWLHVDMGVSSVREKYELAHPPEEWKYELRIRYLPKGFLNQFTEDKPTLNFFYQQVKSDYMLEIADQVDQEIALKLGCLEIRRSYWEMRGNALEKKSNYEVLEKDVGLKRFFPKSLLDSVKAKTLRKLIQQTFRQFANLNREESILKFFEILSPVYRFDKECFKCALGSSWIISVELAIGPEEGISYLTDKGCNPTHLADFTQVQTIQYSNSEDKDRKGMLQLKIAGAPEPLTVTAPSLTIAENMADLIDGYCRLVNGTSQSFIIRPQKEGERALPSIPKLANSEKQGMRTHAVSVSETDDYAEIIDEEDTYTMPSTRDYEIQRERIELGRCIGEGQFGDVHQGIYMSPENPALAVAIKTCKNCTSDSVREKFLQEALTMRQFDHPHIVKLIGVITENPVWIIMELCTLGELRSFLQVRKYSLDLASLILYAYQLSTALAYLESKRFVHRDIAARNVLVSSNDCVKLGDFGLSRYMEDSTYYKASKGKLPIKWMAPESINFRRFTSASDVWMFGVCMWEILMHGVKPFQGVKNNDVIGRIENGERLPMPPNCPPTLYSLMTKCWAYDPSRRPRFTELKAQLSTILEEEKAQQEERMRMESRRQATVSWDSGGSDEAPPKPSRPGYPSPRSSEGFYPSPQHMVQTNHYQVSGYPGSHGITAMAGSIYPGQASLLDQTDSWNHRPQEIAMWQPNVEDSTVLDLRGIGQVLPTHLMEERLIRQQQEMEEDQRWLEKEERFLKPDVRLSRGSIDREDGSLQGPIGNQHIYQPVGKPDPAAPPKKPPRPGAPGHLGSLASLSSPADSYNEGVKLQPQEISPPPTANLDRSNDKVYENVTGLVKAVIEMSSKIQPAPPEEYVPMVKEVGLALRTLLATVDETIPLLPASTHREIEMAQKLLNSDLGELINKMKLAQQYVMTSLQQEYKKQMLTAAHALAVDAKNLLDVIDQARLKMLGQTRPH
UniProt Q9NYA1, whole entry: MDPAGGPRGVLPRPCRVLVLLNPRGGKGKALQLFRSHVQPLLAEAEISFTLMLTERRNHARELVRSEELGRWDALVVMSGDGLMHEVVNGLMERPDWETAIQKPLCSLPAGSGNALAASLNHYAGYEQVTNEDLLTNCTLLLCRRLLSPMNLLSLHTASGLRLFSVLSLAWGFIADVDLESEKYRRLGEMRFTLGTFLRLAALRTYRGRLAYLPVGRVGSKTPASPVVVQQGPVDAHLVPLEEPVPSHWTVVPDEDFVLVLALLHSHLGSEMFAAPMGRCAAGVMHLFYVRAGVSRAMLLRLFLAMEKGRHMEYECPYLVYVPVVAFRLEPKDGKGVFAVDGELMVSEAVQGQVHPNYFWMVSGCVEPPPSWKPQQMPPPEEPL
UniProt Q9Y6E0: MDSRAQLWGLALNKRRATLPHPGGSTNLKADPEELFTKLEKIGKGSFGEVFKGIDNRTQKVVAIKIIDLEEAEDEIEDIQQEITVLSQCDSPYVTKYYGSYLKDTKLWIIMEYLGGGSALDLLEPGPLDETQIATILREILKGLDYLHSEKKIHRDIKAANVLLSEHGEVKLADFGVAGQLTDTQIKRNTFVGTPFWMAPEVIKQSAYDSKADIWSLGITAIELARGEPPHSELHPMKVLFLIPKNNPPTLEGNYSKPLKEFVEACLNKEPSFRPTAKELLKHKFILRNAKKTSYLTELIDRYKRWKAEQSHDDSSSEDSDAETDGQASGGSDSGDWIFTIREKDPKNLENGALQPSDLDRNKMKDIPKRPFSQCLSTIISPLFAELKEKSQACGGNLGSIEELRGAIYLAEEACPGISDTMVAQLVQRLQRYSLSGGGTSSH
UniProt P42680: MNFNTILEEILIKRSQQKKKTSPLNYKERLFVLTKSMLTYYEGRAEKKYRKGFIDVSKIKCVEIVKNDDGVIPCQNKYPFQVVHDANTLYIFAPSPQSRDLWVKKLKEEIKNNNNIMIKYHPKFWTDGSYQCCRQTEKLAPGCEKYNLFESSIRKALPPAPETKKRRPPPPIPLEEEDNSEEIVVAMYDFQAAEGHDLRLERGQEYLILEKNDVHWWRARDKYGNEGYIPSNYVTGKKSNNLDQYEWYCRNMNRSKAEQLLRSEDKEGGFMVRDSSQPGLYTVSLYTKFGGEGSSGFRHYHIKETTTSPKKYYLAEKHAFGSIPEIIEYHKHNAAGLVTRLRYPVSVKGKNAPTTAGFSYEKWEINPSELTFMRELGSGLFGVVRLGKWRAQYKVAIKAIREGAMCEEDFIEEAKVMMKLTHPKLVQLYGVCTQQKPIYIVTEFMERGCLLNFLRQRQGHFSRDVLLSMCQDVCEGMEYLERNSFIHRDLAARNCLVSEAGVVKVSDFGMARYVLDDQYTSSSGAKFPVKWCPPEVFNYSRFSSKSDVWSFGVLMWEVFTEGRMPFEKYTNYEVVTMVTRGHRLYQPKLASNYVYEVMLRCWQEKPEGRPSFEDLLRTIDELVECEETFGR
UniProt P29597: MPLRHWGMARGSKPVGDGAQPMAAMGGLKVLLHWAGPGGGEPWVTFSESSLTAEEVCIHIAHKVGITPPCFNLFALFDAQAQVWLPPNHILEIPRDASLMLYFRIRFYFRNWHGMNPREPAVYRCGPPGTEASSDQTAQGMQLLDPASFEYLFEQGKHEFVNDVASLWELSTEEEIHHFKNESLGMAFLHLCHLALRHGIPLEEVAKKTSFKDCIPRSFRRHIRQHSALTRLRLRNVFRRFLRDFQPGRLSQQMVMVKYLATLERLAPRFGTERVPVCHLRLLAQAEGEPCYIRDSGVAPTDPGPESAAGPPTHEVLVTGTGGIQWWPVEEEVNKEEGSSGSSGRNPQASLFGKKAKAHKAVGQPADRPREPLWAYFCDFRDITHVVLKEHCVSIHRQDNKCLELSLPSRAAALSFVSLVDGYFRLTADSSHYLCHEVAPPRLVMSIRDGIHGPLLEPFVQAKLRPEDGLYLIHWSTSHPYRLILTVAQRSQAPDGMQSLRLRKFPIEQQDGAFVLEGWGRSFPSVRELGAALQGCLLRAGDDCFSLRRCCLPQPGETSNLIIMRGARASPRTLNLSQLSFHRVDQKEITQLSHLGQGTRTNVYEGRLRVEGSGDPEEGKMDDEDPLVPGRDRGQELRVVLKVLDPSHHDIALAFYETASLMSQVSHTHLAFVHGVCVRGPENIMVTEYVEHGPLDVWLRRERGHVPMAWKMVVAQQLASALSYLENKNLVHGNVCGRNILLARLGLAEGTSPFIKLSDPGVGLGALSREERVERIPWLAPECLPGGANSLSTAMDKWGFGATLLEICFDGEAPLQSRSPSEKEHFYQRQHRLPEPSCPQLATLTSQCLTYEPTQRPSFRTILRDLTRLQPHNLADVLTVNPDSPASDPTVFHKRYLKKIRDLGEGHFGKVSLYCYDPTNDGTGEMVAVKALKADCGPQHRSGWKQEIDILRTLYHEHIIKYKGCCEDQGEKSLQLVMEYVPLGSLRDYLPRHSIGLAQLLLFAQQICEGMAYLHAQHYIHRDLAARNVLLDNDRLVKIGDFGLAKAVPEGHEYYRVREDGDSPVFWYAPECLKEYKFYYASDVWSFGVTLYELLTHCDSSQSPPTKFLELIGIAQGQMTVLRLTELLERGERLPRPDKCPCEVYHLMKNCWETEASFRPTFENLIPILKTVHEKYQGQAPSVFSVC
UniProt Q6PHR2: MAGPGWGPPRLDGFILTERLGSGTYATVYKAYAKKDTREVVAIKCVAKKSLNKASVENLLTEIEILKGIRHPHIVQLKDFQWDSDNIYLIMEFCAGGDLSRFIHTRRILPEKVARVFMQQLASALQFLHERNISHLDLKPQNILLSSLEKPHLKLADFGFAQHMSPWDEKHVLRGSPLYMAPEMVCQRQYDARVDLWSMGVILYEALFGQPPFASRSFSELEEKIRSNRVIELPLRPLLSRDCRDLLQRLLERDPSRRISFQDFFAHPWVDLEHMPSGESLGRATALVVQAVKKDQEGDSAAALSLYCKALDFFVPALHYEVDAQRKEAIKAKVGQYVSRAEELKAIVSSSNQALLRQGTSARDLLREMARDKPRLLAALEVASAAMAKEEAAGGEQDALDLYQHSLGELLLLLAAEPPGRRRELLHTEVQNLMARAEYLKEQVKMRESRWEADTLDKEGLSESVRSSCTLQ
UniProt P07949, whole entry, looked up: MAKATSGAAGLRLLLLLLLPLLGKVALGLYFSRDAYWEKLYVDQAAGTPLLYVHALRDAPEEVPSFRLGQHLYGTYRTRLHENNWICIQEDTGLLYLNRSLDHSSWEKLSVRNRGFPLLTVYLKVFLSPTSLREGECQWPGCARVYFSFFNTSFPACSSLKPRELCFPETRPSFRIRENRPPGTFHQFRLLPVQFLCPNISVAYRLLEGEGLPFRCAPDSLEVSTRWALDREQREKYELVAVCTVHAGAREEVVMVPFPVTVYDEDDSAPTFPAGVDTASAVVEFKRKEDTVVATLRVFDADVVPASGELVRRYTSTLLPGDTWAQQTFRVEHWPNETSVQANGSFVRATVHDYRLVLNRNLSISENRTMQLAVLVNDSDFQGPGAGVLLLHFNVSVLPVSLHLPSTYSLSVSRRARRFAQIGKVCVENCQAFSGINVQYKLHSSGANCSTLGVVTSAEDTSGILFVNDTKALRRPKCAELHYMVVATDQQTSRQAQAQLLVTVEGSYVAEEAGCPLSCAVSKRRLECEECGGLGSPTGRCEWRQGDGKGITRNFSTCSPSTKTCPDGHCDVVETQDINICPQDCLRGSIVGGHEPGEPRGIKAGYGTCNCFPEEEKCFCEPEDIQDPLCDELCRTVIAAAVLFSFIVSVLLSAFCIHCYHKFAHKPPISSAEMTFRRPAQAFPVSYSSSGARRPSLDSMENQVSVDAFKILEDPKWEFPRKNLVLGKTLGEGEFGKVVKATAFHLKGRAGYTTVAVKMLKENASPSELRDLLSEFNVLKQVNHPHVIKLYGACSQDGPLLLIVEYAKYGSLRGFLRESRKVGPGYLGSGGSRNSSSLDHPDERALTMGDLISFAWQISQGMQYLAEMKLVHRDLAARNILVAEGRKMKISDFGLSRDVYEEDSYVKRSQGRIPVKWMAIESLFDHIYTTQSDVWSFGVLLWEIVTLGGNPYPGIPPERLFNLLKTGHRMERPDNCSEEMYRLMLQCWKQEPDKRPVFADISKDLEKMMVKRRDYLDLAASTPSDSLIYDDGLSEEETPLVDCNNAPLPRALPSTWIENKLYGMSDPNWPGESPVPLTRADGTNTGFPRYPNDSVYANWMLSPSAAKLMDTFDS
UniProt P07949, whole entry M918T, looked up: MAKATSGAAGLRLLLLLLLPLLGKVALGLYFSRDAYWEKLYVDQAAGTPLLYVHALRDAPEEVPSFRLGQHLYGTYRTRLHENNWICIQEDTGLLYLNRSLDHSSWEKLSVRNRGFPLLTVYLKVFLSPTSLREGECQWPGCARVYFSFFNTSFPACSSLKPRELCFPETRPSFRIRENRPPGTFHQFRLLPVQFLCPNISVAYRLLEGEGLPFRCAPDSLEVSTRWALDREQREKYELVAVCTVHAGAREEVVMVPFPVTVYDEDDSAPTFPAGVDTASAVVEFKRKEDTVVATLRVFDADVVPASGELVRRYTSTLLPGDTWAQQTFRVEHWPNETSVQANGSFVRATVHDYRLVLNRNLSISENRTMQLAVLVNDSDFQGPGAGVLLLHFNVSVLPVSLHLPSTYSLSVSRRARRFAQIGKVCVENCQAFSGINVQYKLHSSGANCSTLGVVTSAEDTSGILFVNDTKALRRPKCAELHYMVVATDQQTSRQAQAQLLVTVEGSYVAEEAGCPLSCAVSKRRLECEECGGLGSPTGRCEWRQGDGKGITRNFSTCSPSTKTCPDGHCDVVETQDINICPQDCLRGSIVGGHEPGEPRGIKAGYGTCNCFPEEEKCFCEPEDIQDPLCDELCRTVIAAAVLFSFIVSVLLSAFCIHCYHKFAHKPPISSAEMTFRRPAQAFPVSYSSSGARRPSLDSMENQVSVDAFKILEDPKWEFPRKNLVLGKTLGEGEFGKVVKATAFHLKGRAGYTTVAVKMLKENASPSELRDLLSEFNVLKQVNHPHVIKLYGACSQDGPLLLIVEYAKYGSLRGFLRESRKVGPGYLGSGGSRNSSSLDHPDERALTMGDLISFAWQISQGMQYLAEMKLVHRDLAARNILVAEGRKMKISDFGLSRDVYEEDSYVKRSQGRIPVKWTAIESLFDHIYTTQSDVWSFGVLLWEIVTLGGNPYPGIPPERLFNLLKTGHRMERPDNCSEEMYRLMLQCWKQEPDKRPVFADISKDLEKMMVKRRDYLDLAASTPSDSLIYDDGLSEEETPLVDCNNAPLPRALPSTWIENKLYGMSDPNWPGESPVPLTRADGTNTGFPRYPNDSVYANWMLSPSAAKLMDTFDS

Columns and labels:
Experiment in all cases: number of time points (of 5) at which kinase-Nluc abundance scored as decreased, DMSO-normalised (count); higher = more persistent destabilization
Conditions in all cases: K562; 2-18 h
[1] = biological target: PRKCA (UniProt P17252)
[2] = biological target: PTK2 (UniProt Q05397)
[3] = biological target: RAF1 (UniProt P04049)
[4] = biological target: RAF1_S257L (clone: RAF1_mut) (UniProt P04049)
[5] = biological target: RIOK1 (UniProt Q9BRS2)
[6] = biological target: RIPK1 (UniProt Q13546)
[7] = biological target: RIPK2 (UniProt O43353)
[8] = biological target: ROR2 (UniProt Q01974)
[9] = biological target: RPS6KA1 (UniProt Q15418)
[10] = biological target: SPHK1 (UniProt Q9NYA1)
[11] = biological target: SRC (UniProt P12931)
[12] = biological target: STK24 (UniProt Q9Y6E0)
[13] = biological target: STK38 (UniProt Q15208)
[14] = biological target: SYK (UniProt P43405)
[15] = biological target: TEC (UniProt P42680)
[16] = biological target: TYK2 (UniProt P29597)
[17] = biological target: ULK3 (UniProt Q6PHR2)
[18] = biological target: PTK2B (UniProt Q14289)
[19] = biological target: RET (UniProt P07949)
[20] = biological target: RET_M918T (clone: RET_mut) (UniProt P07949)

Row | SMILES | number of time points [1] | number of time points [2] | number of time points [3] | number of time points [4] | number of time points [5] | number of time points [6] | number of time points [7] | number of time points [8] | number of time points [9] | number of time points [10] | number of time points [11] | number of time points [12] | number of time points [13] | number of time points [14] | number of time points [15] | number of time points [16] | number of time points [17] | number of time points [18] | number of time points [19] | number of time points [20]
1 | COc1nccc(-c2c(-c3ccc(F)cc3)ncn2C2CCC(O)CC2)n1 (configuration not stated) (10 µM) | 0 | 0 | 0 | 0 | 0 | 0 | 0 | 0 | 0 | 0 | 0 | 0 | 0 | 0 | 0 | 0 | 0 | – | – | –
2 | FC(F)(F)c1ccc(CNc2ccc(Cc3c[nH]c4ncc(Cl)cc34)cn2)cc1 (10 µM) | 0 | 0 | 0 | 0 | 0 | 0 | 0 | 0 | 0 | 1 | 0 | 0 | 0 | 0 | 0 | 0 | 0 | 0 | 0 | 0
3 | Brc1c(Br)c(Br)c2n[nH]nc2c1Br (10 µM) | 0 | 0 | 0 | 0 | 0 | 0 | 0 | 0 | 0 | 0 | 0 | 0 | 0 | 0 | 0 | 0 | 0 | 0 | 0 | 0
4 | C[C@]1(O)C[C@@H](c2nc(-c3ccc4ccc(-c5ccccc5)nc4c3)c3c(N)nccn32)C1 [Linsitinib] (2.5 µM) | 0 | 0 | 0 | 0 | 0 | 0 | 0 | 0 | 0 | 0 | 0 | 0 | 0 | – | 0 | 0 | 0 | 0 | 0 | 0
5 | COC(=O)c1ccc2c(C(=Nc3ccc(N(C)C(=O)CN4CCN(C)CC4)cc3)c3ccccc3)c(O)[nH]c2c1 [Nintedanib] (2.5 µM) | 0 | 0 | 0 | 0 | 0 | 0 | 0 | 0 | 0 | 0 | 0 | 0 | 0 | 0 | 0 | 0 | 0 | 0 | 0 | 0
6 | Cc1ccc2c(Nc3cccc(OC(F)(F)F)c3)nccc2c1Nc1ncccc1-c1ncnc2[nH]cnc12 (10 µM) | 0 | 0 | – | 0 | 0 | 0 | 0 | 0 | 0 | 0 | 0 | 0 | 0 | 0 | 0 | 0 | 0 | 0 | 0 | 0
7 | Cc1cc(C)c(/C=C2\C(=O)Nc3ccccc32)[nH]1 [Semaxinib] (10 µM) | 0 | 0 | 0 | 0 | 0 | 0 | 0 | 0 | 0 | 0 | 0 | 0 | 0 | – | 0 | 0 | 0 | – | – | –
8 | CCN1CCN(Cc2ccc(C(=O)Nc3ccc(C)c(Oc4ccc5c(c4)CC(=O)N5)c3)cc2C(F)(F)F)CC1 (2.5 µM) | 0 | 2 | 2 | 4 | 2 | 3 | 3 | 0 | 0 | 1 | 0 | 0 | 1 | 0 | 1 | 3 | 3 | 2 | 2 | 0
9 | Cc1c(Cn2c(C)nc3c(C(=O)O)cc(N4CCOCC4)cc32)cccc1C(F)(F)F (10 µM) | 0 | 0 | 0 | – | – | – | – | 0 | 0 | 0 | 0 | 0 | 0 | 0 | 0 | 0 | 0 | 0 | 0 | 0
10 | CCN(CCO)CCCOc1ccc2c(Nc3cc(CC(=O)Nc4cccc(F)c4)[nH]n3)ncnc2c1 [Barasertib-HQPA] (10 µM) | 0 | 0 | 0 | 0 | 0 | 0 | 0 | 0 | 0 | 0 | 0 | 0 | 0 | 0 | 0 | 0 | 0 | 0 | 0 | 0
11 | CN(C)C(=O)/C(C#N)=C/c1ccc(-c2nc3cnc4[nH]ccc4c3n2C2CCCCC2)o1 (10 µM) | 0 | 0 | 0 | 0 | 0 | 0 | 0 | 0 | 0 | 0 | 0 | 0 | 0 | 0 | 0 | 0 | 0 | – | 0 | 0
12 | CCN(CC)CCCCNc1ncc2cc(-c3cc(OC)cc(OC)c3)c(NC(=O)NC(C)(C)C)nc2n1 (10 µM) | 0 | 0 | 0 | 0 | 0 | 0 | 0 | 0 | 0 | 0 | 0 | 0 | 0 | 0 | 0 | 0 | 0 | 0 | 0 | 0
13 | COc1cc(Nc2ncc3c(n2)-c2ccc(Cl)cc2C(c2c(F)cccc2OC)=NC3)ccc1C(=O)O [Alisertib] (2.5 µM) | 0 | 0 | 0 | 0 | 0 | 0 | 0 | 0 | 0 | 0 | 0 | 0 | 0 | – | 0 | 0 | 0 | 0 | – | –
14 | O=C1c2ccccc2-c2n[nH]c3cccc1c23 (10 µM) | 0 | 0 | 0 | 0 | 0 | 0 | 0 | 0 | 0 | 0 | 0 | 0 | 0 | – | 0 | 0 | 0 | 0 | 0 | 0
15 | Cc1cc(CS(=O)(=O)c2ccccc2)cc(OCc2ccc(CN3CCC[C@@H]3CO)cc2)c1 [PF-543 (Citrate)] (10 µM) | 0 | 0 | 0 | 0 | 0 | 0 | 0 | 0 | 0 | – | 0 | 0 | 0 | 0 | 0 | 0 | 0 | 0 | 0 | 0
16 | CC(C)(C)c1cc(NC(=O)Nc2ccc(-c3cn4c(n3)sc3cc(OCCN5CCOCC5)ccc34)cc2)no1 [Quizartinib] (10 µM) | 0 | 0 | 3 | 0 | 0 | – | 0 | 0 | 0 | 0 | 0 | 0 | 0 | 0 | 0 | 0 | 0 | 0 | 4 | 3
17 | Nc1ncnc2c1c(-c1cccc(OCc3ccccc3)c1)cn2C1CC(CN2CCCC2)C1 (configuration not stated) (2.5 µM) | 0 | 0 | 0 | 0 | 0 | 0 | 0 | 0 | 0 | 0 | 0 | 0 | 0 | 0 | 0 | 0 | 0 | 0 | 0 | 0
18 | COc1ccc2c(NC(=O)Nc3cccc(C(F)(F)F)n3)ccnc2c1 (10 µM) | 0 | 0 | 0 | 0 | 0 | 0 | 0 | 0 | 0 | 0 | 0 | 0 | 0 | – | 0 | 0 | 0 | 0 | 0 | 0
19 | Cc1ccc(S(=O)(=O)Nc2nc3ccccc3nc2Nc2ccc3nsnc3c2)cc1 [Pilaralisib analogue] (10 µM) | 1 | 5 | 0 | 0 | 0 | 0 | 0 | 1 | 1 | 0 | 0 | – | 0 | 0 | 1 | 0 | 5 | 1 | 0 | 0
20 | CC(=O)NCC(=O)N1[C@@H]2CC[C@H]1c1ccc(Nc3ncc(C(F)(F)F)c(NC4CCC4)n3)cc12 (2.5 µM) | 0 | 1 | 3 | 4 | 3 | 2 | 1 | 0 | 0 | 0 | 0 | 1 | 0 | – | 0 | 4 | 5 | 0 | 0 | 3

Reformatted as a markdown table: 2 of the compounds above

| Row | SMILES | number of time points [1] | number of time points [2] | number of time points [3] | number of time points [4] | number of time points [5] | number of time points [6] | number of time points [7] | number of time points [8] | number of time points [9] | number of time points [10] | number of time points [11] | number of time points [12] | number of time points [13] | number of time points [14] | number of time points [15] | number of time points [16] | number of time points [17] | number of time points [18] | number of time points [19] | number of time points [20] |
| --- | --- | --- | --- | --- | --- | --- | --- | --- | --- | --- | --- | --- | --- | --- | --- | --- | --- | --- | --- | --- | --- |
| 12 | CCN(CC)CCCCNc1ncc2cc(-c3cc(OC)cc(OC)c3)c(NC(=O)NC(C)(C)C)nc2n1 (10 µM) | 0 | 0 | 0 | 0 | 0 | 0 | 0 | 0 | 0 | 0 | 0 | 0 | 0 | 0 | 0 | 0 | 0 | 0 | 0 | 0 |
| 13 | COc1cc(Nc2ncc3c(n2)-c2ccc(Cl)cc2C(c2c(F)cccc2OC)=NC3)ccc1C(=O)O [Alisertib] (2.5 µM) | 0 | 0 | 0 | 0 | 0 | 0 | 0 | 0 | 0 | 0 | 0 | 0 | 0 | – | 0 | 0 | 0 | 0 | – | – |
